These results are taken from publication PMC7819943, “Rice protein-binding microarrays: a tool to detect cis-acting elements near promoter regions in rice”.

Chains of the proteins cited; added tags and fusions are not shown.
UniProt Q0JBA9, entry or part of it: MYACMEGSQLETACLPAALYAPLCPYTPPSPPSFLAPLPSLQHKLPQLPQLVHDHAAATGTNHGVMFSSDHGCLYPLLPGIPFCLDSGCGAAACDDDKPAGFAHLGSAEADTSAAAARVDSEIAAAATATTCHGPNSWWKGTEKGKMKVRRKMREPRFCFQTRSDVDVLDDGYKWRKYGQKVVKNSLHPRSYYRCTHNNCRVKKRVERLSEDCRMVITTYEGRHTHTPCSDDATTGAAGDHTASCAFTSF

The other results are listed elsewhere or left out.

In this assay the target is OsWRKY34 (Oryza sativa, UniProt Q0JBA9 1-250). Briefly: protein-binding microarray (RPBM); PBS, 2% BSA, 51.3 ng/ul salmon testes DNA, 50 uM zinc acetate, 200 nM TF, 25 C, 1 h; high values mean tight binding. Particulars: protein: recombinant; tags: N-terminal polyhistidine and DsRed monomer fusion (pET32a); label: CyDye5-dUTP incorporated in the synthesized complementary strand; 3' TTTTT single-stranded linker to array surface; dsDNA, one strand shown. The procedure, abridged: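 The binding signal for each feature is its fluorescence intensity in arbitrary units. An Axon 4000B scanner was used to read a custom Agilent array that had been made double-stranded with Cy5-dUTP primer extension, blocked with 2% BSA, incubated at 25 °C for 1 h with 200 nM protein in PBS, 2% BSA, salmon testes DNA and 50 µM zinc acetate, and washed. The protein was an N-terminal polyhistidine–DsRed transcription factor fusion from E. coli BL21-CodonPlus, purified on Ni–NTA.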
For “ATTCCCCATTTCCTTTTTCCCCTTTTGTTGAGAGGGGAATCGGAGTCACCTAGTGCAG”, the binding signal is 10500 fluorescence intensity (a.u.). As for “TCATTACTGTTTTTCATCGTTTCTGTTCTGAAAATTTCATCGGAGTCACCTAGTGCAG”, the figure is 9060 fluorescence intensity (a.u.). As for “CCCCGTCGCCCTTGCCCCACACCCAGGCGCCGCCGTCGACCGGAGTCACCTAGTGCAG”, the figure is 10100 fluorescence intensity (a.u.). Under “GTATCTCTGCAGCTGACCTGGCCAATCTTTGTTCCTTGCTCGGAGTCACCTAGTGCAG” stands 14700 fluorescence intensity (a.u.).

“GGCCATTTATCCATTTGGAGGTCAGTGCTAGTCCACCTCTCGGAGTCACCTAGTGCAG”: the binding signal is 8560 fluorescence intensity (a.u.).

“TGAGTTATTTTGCGTGTGACCTTGCTTACAGAGTTCCAGTCGGAGTCACCTAGTGCAG”: the binding signal was 9180 fluorescence intensity (a.u.). For “GTGGCCTAACTTGACCTTACCAATTTTTGTCAATACCAAACGGAGTCACCTAGTGCAG”, the binding signal is 8490 fluorescence intensity (a.u.). As to “TTTCTTTTGAGTCTTTATCTCTCTTCTAATTCATGTGTTTCGGAGTCACCTAGTGCAG”, the binding signal was 8480 fluorescence intensity (a.u.). As for “ACGGCCACGCCTCGCGTCGTCATAGTCGTCTTCCTCGATCCGGAGTCACCTAGTGCAG”, the figure is 11300 fluorescence intensity (a.u.); as for “CTGCAATCTAGCCATCTGTTATCTATCCATGCATCGATGTCGGAGTCACCTAGTGCAG”, 8120 fluorescence intensity (a.u.); as for “TAGTCGGGTGGATTTATTTGGGTGGATGAACATCAATATACGGAGTCACCTAGTGCAG”, 8270 fluorescence intensity (a.u.). As for “CCACCCGCCACCTGCTGCCTGCCGCCGGCCTCCCCTCACCCGGAGTCACCTAGTGCAG”, the figure is 12400 fluorescence intensity (a.u.). For “GTGTGTGTTGTAAGCGTTTATTTTTCTACTTTGTTTGCAGCGGAGTCACCTAGTGCAG”, the binding signal was 9500 fluorescence intensity (a.u.). Take “ACATTTTGACTTTTGCCAAAGTCAAACTGCTTTAAGTTTGCGGAGTCACCTAGTGCAG”: the binding signal was 11900 fluorescence intensity (a.u.). As for “CAGCTTGAGTCTTCAGTTTGTTAGTTCAGCTAGTTTTCCTCGGAGTCACCTAGTGCAG”, the figure is 9020 fluorescence intensity (a.u.). Under “GGAGTACTTGTATGCTGTTGTCTGAGGCTATGTTTATTTCCGGAGTCACCTAGTGCAG” stands 9620 fluorescence intensity (a.u.). Under “GCTTATAGGTAGCTTTTGTTATTTCTTTGCTGCTATGAATCGGAGTCACCTAGTGCAG” stands 8150 fluorescence intensity (a.u.). Regarding “GCATTTCTGTTGACTCTCGCTCGCTTATCATCGTATAGACCGGAGTCACCTAGTGCAG”, the binding signal was 10200 fluorescence intensity (a.u.).

“TATCAATTTACTGCTGATTTTGACTTTGTACATTCCGTTTCGGAGTCACCTAGTGCAG”: the binding signal is 8130 fluorescence intensity (a.u.). Take “GGTTATTGCTCTGTACAAGCTAGCTACTTTTTATAACCATCGGAGTCACCTAGTGCAG”: the binding signal is 9810 fluorescence intensity (a.u.). Under “ACGCTGCCGTCTCATTTCGCTTTCGTAGAACTTGCTCCAGCGGAGTCACCTAGTGCAG” stands 8500 fluorescence intensity (a.u.). In the case of “AAAAGCCGGTCTCCTTCATCTTCCCGTCCGTAAACCCTAACGGAGTCACCTAGTGCAG”, the binding signal was 10600 fluorescence intensity (a.u.). Under “TATACTAATGACTCTTCTTGTGCATATCTTCTCCTTCTCTCGGAGTCACCTAGTGCAG” stands 10300 fluorescence intensity (a.u.); under “GGGTTATTCTTTGCATGATATTTGACGTTTTTTCTCGCTGCGGAGTCACCTAGTGCAG”, 9920 fluorescence intensity (a.u.); under “CATATGTTGGGATCCTCCTCGTCGATTTTCTTGGTTCTTTCGGAGTCACCTAGTGCAG”, 8480 fluorescence intensity (a.u.). As for “CGCTGAGCTTTGTGTTGCTTTTGGTCTCCTAGATAGGTTTCGGAGTCACCTAGTGCAG”, the binding signal is 10200 fluorescence intensity (a.u.). “CAGCCACTTACACAGTAGTTACACCTCATTTACACACACTCGGAGTCACCTAGTGCAG”: the binding signal is 9340 fluorescence intensity (a.u.). Under “GCTCTCCCGACTTGTCTAAGCCCTTTATTTGCTTATGATTCGGAGTCACCTAGTGCAG” stands 8590 fluorescence intensity (a.u.). As for “TCCTATTCCTTTATTTTTTCATTCCTACTATTCGGAGGAGCGGAGTCACCTAGTGCAG”, the figure is 8120 fluorescence intensity (a.u.); as for “ACTTTTTAACCAACGTTTGACCATTCGTCTTATTCAAATTCGGAGTCACCTAGTGCAG”, 10600 fluorescence intensity (a.u.); as for “GCTATTTTTTCGTTTCTGGATTCCCTATTCTTGTCCCGTCCGGAGTCACCTAGTGCAG”, 10800 fluorescence intensity (a.u.). As for “CCCGCCTCGCGTCGCCGCCGCCGCCGCCGCCCCGCGCGCCCGGAGTCACCTAGTGCAG”, the figure is 9640 fluorescence intensity (a.u.); as for “GCGCCTTTACTCCTTTACCATGTCGTTTTTTTACTCCAAGCGGAGTCACCTAGTGCAG”, 13500 fluorescence intensity (a.u.); as for “CGAGTGCCAGCCATCCCACTCCACCTTTGCCTCGTCGTCTCGGAGTCACCTAGTGCAG”, 11100 fluorescence intensity (a.u.).

On to “CTTCCAGCGATGCCGCAGCCGTTTTGCGCCGCCCGCACTGCGGAGTCACCTAGTGCAG”, for which the binding signal is 8480 fluorescence intensity (a.u.). Under “ACATCAACCTGTCATACACACACAACTTTTCAGTCACATCCGGAGTCACCTAGTGCAG” stands 8160 fluorescence intensity (a.u.). As for “CTCCTCTCTCACGCGTCTCTGTTCCCGTCCTCATCCCGACCGGAGTCACCTAGTGCAG”, the figure is 10100 fluorescence intensity (a.u.). With “CACTTTTGAGTATTACATGTCTCATCAATCATCTTCATTTCGGAGTCACCTAGTGCAG”, the binding signal was 9400 fluorescence intensity (a.u.). As for “CCCACCTCGCTGTCGTTTCTTCCTCTGGCTGGTCGCGTTGCGGAGTCACCTAGTGCAG”, the binding signal is 12700 fluorescence intensity (a.u.).

For “CGTCCAACTTTGATCGTCCGTTTTATTTGAATTTTTTTATCGGAGTCACCTAGTGCAG”, the binding signal was 11200 fluorescence intensity (a.u.). As for “TTGATTGTATCCCTGGGCACTTGTATTCTTGAGTGGATTTCGGAGTCACCTAGTGCAG”, the figure is 9480 fluorescence intensity (a.u.).

Consider “AACCCGGTTTTATCCTATGTGGCTGCTAACTCAGCGTGGGCGGAGTCACCTAGTGCAG”, for which the binding signal was 8100 fluorescence intensity (a.u.).
